Results are given in words; binding and its absence hold for the method and conditions named. Binding seen in cells or lysates may run through a third protein. Some binding calls cover weakened binding; strength is not graded here.
Biological target: T1, LukH_MSHR1132 (Staphylococcus aureus MSHR1132)
T1 sequence: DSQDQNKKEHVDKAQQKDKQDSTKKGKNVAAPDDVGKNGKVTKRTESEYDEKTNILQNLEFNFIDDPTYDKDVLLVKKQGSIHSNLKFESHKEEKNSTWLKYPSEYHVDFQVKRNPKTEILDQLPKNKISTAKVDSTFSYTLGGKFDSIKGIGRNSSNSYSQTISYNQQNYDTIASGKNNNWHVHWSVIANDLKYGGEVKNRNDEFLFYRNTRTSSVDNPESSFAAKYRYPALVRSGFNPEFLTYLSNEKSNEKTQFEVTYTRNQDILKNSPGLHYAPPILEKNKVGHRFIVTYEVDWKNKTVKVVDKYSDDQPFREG
Experiment: co-expression in E. coli; IMAC through NusA/His6 on LukG, with un-tagged LukH co-purified; the complex was kept through tag removal and cation exchange

B1: LukG_MSHR1132 (protein)
chain: KIKSEITQVSEQNIDGNTKMFTRTATTSDSQKKISQSLQFNFLTEPNYDKETVFIKAKGTIGSGLKILDPNGYWNSTLRWPGSYSVSIQNVDNNTNTKVTDFAPKNQDETREVKYTYGYKTGGDFSISPGGITGNITKERNYSETISYQQPSYRTLIDQPATNKGVGWKVEAHLINNMGHDHTRQLTNDSDNRVGSEIFTLTRNGNLWAKDNFTPKNKMPVTVSEGFNPEFLAVMSHDKKDKGKSKFVVHYKRTMDDFKIDWMRHGFWGYWTGKNHVDQKEEKLSALYEVDWKTHDVKFIKALDDKEKK
binding: binds

Source: patent publication US20160340415A1
